Reference: US20190307908A1, “NANOEMULSION AGENTS FOR ULTRASOUND DIAGNOSTIC AND THERAPY” (University of Washington, priority 2018, published 2019)

Assay: acoustic activation (cavitation) threshold, passive cavitation detection
Assay type: physicochemical
Conditions: ouzo droplets; 15-cycle pulses, 1.24 MHz focused transducer, degassed water bath 37° C.

First: FC(F)(F)C(F)(F)C(F)(F)C(F)(F)C(F)(F)C(F)(F)F [perfluorohexane]
Second: FC(F)(F)C(F)(F)C(F)(F)C(F)(F)C(F)(F)F [perfluoropentane]
The “50% activation (cavitation) threshold” value of the first is higher: 6.86 MPa for the first, 5.11 MPa for the second.

Compared with FC(F)(F)C(F)(F)C(F)(F)F [perfluoropropane], FC(F)(F)C(F)(F)C(F)(F)C(F)(F)F [perfluorobutane] is higher in “50% activation (cavitation) threshold” value: 1.74 MPa for the first, 3.49 MPa for the second.
